Experimental data published in doi:10.1101/2022.04.29.490010 (bioRxiv, 2022).
Positions count from the first letter of the chain named. Names and notes keep the numbering of the source. No constants are given. Whether binding was seen depends on the method and setting. Binding seen in cells or lysates may run through a third protein. Some results given as binding are weak or reduced against the parent protein; the word gives no strength. Sequences can lack the tags named with a protein.

B1: EndoA wild type (Drosophila Endophilin-A, GST tag cleaved) (natural protein, UniProt Q8T390 1-369, looked up)
chain: MAFAGLKKQINKANQYMTEKMGGAEGTKLDMDFMEMERKTDVTVELVEELQLKTKEFLQPNPTARAKMAAVKGISKLSGQAKSNTYPQPEGLLAECMLTYGKKLGEDNSVFAQALVEFGEALKQMADVKYSLDDNIKQNFLEPLHHMQTKDLKEVMHHRKKLQGRRLDFDCKRRRQAKDDEIRGAEDKFGESLQLAQVGMFNLLENDTEHVSQLVTFAEALYDFHSQCADVLRGLQETLQEKRSEAESRPRNEFVPKTLLDLNLDGGGGGLNEDGTPSHISSSASPLPSPMRSPAKSMAVTPQRQQQPCCQALYDFEPENPGELAFKENDIITLLNRVDDNWFEGAVNGRTGYFPQSYVQVQVPLPNGN
B2: EndoA^D265R (Drosophila Endophilin-A D265R, GST tag cleaved) (natural protein, UniProt Q8T390 1-369, looked up)
chain: B1 chain with D265R
B3: EndoA^D265A (Drosophila Endophilin-A D265A, GST tag cleaved) (natural protein, UniProt Q8T390 1-369, looked up)
chain: B1 chain with D265A

molecular target: T1, Dynamin (Drosophila, endogenous) (Drosophila (endogenous in fly heads)) (UniProt P27619); assay: co-IP
T1 sequence: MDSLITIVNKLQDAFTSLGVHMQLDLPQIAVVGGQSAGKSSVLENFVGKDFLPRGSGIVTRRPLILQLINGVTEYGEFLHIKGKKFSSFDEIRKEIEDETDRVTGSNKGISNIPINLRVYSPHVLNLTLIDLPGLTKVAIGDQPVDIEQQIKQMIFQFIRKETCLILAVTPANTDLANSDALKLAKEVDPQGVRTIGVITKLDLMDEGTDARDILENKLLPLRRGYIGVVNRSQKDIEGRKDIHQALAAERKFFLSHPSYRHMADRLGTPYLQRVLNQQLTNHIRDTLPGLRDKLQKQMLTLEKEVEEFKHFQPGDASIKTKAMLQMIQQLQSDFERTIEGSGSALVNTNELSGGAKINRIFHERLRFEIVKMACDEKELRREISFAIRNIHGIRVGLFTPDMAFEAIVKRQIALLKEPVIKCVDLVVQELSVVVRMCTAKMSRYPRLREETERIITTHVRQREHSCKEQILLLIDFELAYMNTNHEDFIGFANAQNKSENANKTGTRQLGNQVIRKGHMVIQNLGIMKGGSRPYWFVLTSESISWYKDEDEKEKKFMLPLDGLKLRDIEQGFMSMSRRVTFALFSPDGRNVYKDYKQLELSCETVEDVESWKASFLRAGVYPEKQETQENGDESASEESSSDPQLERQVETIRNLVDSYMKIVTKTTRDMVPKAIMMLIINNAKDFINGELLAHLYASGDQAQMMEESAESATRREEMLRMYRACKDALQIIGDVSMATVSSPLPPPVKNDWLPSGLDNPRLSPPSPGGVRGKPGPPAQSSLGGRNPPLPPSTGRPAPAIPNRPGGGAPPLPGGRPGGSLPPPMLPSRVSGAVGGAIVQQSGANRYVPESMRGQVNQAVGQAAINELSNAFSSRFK

| Binder | binding |
| --- | --- |
| B1 | binds |
| B2 | binds |
| B3 | binds |
